In paper PMC6617973:
No constants are given. Whether binding was seen depends on the method and setting. Binding seen in cells or lysates may run through a third protein. Some results given as binding are weak or reduced against the parent protein; the word gives no strength.

Target: T1, vascular endothelial cadherin (mouse (endogenous in pMECs)) (UniProt P55284)
T1 sequence: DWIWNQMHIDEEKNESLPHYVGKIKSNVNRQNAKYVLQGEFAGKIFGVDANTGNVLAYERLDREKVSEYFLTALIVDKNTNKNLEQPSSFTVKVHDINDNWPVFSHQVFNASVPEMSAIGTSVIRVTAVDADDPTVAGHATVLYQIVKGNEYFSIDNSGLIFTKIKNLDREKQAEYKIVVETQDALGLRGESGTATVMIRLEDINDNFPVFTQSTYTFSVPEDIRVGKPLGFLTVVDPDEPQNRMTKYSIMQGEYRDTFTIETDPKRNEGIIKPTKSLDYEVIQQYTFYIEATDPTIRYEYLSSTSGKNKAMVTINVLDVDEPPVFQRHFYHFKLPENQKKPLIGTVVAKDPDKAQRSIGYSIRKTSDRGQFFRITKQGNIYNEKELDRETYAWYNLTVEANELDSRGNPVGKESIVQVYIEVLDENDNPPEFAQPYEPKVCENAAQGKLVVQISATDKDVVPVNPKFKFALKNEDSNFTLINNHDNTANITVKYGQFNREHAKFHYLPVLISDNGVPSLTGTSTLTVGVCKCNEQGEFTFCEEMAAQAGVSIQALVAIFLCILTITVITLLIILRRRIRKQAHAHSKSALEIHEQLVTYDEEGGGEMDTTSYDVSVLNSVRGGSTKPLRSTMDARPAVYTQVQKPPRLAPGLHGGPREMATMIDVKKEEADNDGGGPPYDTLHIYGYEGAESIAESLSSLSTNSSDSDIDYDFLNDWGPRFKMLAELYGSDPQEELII
Test: co-IP; VE-Cadherin immunoprecipitates from lysates of F/F and BRAFΔ/Δ pMEC monolayers; Protein G Sepharose with antibody, 4 °C overnight; 25 mM HEPES, 150 mM NaCl, 1 mM EGTA, 0.5% NP-40, 10% glycerol; immunoblot

B1: p120 catenin (protein, UniProt P30999 1-938)
chain: MDDSEVESTASILASVKEQEAQFEKLTRALEEERRHVSAQLERVRVSPQDANSLMANGTLTRRHQNGRFVGDADLERQKFSDLKLNGPQDHNHLLYSTIPRMQEPGQIVETYTEEDPEGAMSVVSVETTDDGTTRRTETTVKKVVKTMTTRTVQPVPMGPDGLPVDASAVSNNYIQTLGRDFRKNGNGGPGPYVGQAGTATLPRNFHYPPDGYGRHYEDGYPGGSDNYGSLSRVTRIEERYRPSMEGYRAPSRQDVYGPQPQVRVGGSSVDLHRFHPEPYGLEDDQRSMGYDDLDYGMMSDYGTARRTGTPSDPRRRLRSYEDMIGEEVPPDQYYWAPLAQHERGSLASLDSLRKGMPPPSNWRQPELPEVIAMLGFRLDAVKSNAAAYLQHLCYRNDKVKTDVRKLKGIPILVGLLDHPKKEVHLGACGALKNISFGRDQDNKIAIKNCDGVPALVRLLRKARDMDLTEVITGTLWNLSSHDSIKMEIVDHALHALTDEVIIPHSGWEREPNEDCKPRHIEWESVLTNTAGCLRNVSSERSEARRKLRECDGLVDALIFIVQAEIGQKDSDSKLVENCVCLLRNLSYQVHREIPQAERYQEALPTVANSTGPHAASCFGAKKGKDEWFSRGKKPTEDPANDTVDFPKRTSPARGYELLFQPEVVRIYISLLKESKTPAILEASAGAIQNLCAGRWTYGRYIRSALRQEKALSAIAELLTSEHERVVKAASGALRNLAVDARNKELIGKHAIPNLVKNLPGGQQNSSWNFSEDTVVSILNTINEVIAENLEAAKKLRETQGIEKLVLINKSGNRSEKEVRAAALVLQTIWGYKELRKPLEKEGWKKSDFQVNLNNASRSQSSHSYDDSTLPLIDRNQKSDKKPDREEIPMSNMGSNTKSLDNNYSTLNERGDHNRTLDRSGDLGDMEPLKGAPLMQKI
- binding: binds
